# Assay results published in paper PMC4284746.
# Amino acid sequences for entries named in this document (tags omitted). A change or cut given only in a name is not applied to a line headed by its entry. Chains listed by the source or under a name are the forms on record and can include a tag or linker.
# UniProt P00441: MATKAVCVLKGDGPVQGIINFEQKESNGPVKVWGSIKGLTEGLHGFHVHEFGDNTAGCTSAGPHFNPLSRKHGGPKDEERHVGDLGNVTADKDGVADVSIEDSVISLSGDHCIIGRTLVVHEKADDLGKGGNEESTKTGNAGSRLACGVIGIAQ
# human SOD1 G85R expressed in transgenic mouse spinal cord (P00441, form named): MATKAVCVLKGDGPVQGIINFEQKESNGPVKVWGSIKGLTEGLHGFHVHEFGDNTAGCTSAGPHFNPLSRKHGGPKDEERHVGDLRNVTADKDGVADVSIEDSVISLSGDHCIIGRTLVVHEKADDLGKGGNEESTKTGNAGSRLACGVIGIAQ
# UniProt Q3UHJ0: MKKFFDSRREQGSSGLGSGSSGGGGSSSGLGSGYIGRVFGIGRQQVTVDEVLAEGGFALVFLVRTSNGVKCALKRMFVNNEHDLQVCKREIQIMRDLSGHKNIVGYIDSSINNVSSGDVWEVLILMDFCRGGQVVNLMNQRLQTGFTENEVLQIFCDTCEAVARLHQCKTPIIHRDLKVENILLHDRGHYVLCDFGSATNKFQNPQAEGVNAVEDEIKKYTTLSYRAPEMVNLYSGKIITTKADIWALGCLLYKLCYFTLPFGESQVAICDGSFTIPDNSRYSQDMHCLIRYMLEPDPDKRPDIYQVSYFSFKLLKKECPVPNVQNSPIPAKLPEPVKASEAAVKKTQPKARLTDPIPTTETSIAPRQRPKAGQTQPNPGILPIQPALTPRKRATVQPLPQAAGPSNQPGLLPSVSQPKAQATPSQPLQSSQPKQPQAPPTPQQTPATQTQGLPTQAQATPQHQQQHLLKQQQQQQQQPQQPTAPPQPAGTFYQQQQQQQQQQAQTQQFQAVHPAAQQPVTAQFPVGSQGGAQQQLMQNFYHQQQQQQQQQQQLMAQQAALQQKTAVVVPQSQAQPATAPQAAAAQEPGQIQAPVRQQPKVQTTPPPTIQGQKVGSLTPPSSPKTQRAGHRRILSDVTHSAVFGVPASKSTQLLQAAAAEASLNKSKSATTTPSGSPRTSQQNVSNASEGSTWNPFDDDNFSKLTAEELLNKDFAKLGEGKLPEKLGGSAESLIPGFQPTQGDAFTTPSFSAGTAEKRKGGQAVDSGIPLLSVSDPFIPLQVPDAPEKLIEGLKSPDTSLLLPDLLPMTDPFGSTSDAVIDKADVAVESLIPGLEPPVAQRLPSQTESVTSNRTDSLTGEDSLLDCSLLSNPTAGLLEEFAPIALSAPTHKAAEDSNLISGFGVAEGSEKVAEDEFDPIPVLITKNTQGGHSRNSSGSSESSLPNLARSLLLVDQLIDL
# No constants are given. Whether binding was seen depends on the method and setting. Binding seen in cells or lysates may run through a third protein.
# Biological target: human SOD1 G85R expressed in transgenic mouse spinal cord (human) (UniProt P00441)
# Assay: co-IP; immunoprecipitation from synaptosomal preparations of SOD1^G85R transgenic mouse spinal cord tissues; which protein was precipitated not given
substance,measurement,value
"AAK1, endogenous in mouse spinal cord (from UniProt Q3UHJ0 1-959) (enzyme)",binding,no binding
